PubChem BioAssay AID1159601 | NIAID | 2016
This is a random part of 756 deposited reagents. 143 of them (19%) count as active. 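Calls include both lowered and raised reporter signal; each row is a single siRNA, not a gene summary; Pam3CSK4 dose not stated.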 Unmarked entries are inactive. The numbers tell different reagents against one gene apart. Reagent sequences are not shown. Not given: the amount of reagent.

Screen: 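Genes whose loss changes TNF reporter induction by lipopeptide in human macrophage-like cells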 (primary screen)
Cell system: human THP-1 reporter cells differentiated with PMA into macrophage-like cells
Knock-down reagent: single siRNA against human genes
Duration: ligand added 4 hours before read-out; cells assayed 48 to 72 hours after siRNA transfection
Challenge: Pam3CSK4 (TLR2 ligand) for 4 hours; dose not given
Detection: 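Firefly over renilla luciferase ratio from a TNF promoter reporter after 4 h Pam3CSK4, plate scaled by median and MAD, robust z-score versus negative controls, replicate mean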
Reading the numbers: TNF reporter z-score: higher = stronger TNF promoter reporter activity
Call rule: 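Grade increases with absolute z-score, cut points 1, 1.5, 2 and 2.5, both signs; rows called active have z near or beyond ±1.5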
Meaning of the calls: active = clear change (up or down); inactive = little change

IKBKE #1 scored TNF reporter z-score, replicate mean 2.8 (active). With knock-down of IKBKE #2, the screen gave TNF reporter z-score, replicate mean 0.225. Knock-down of IKBKE #3 came out at: TNF reporter z-score, replicate mean -1.26. IKBKE #4 gave TNF reporter z-score, replicate mean 2.51 (active). Knock-down of IKBKE #5 gave: TNF reporter z-score, replicate mean -0.7. Against IKBKE #6, the values are TNF reporter z-score, replicate mean -0.846.

IFNAR1 #1 scored TNF reporter z-score, replicate mean -0.715. Depletion of IFNAR1 #2 resulted in: TNF reporter z-score, replicate mean -0.643. IFNAR1 #3 scored TNF reporter z-score, replicate mean 0.69. For IFNAR1 #4, the values are TNF reporter z-score, replicate mean -0.486. IFNAR1 #5 showed TNF reporter z-score, replicate mean -1.29. For IFNAR1 #6, the entry reads TNF reporter z-score, replicate mean -0.0872.

ATF7 #1 gave TNF reporter z-score, replicate mean -1.86 (active). For ATF7 #2 the deposit lists TNF reporter z-score, replicate mean -0.784. After knock-down of ATF7 #3 the results were TNF reporter z-score, replicate mean -1.11. After knock-down of ATF7 #4, the screen gave TNF reporter z-score, replicate mean -1.03. ATF7 #5 scored TNF reporter z-score, replicate mean -2.25 (active). Knock-down of ATF7 #6 gave: TNF reporter z-score, replicate mean -0.847.

Active calls, among the entries above:
IKBKE #1 → TNF reporter z-score, replicate mean: 2.8 (active)
IKBKE #4 → TNF reporter z-score, replicate mean: 2.51 (active)
ATF7 #1 → TNF reporter z-score, replicate mean: -1.86 (active)
ATF7 #5 → TNF reporter z-score, replicate mean: -2.25 (active)

Next entries follow.
For TRADD #1, the entry reads TNF reporter z-score, replicate mean 1.53 (active). TRADD #2 showed TNF reporter z-score, replicate mean -0.698. After knock-down of TRADD #3 the results were TNF reporter z-score, replicate mean -0.714. TRADD #4 showed TNF reporter z-score, replicate mean -1.15. Depletion of TRADD #5 came out at: TNF reporter z-score, replicate mean 0.993. Depletion of TRADD #6 resulted in: TNF reporter z-score, replicate mean -5.01 (active).

After knock-down of LY96 #1, the screen gave TNF reporter z-score, replicate mean -0.764. Against LY96 #2 the deposit lists TNF reporter z-score, replicate mean -0.186. For LY96 #3, the entry reads TNF reporter z-score, replicate mean 1.99 (active). Depletion of LY96 #4 gave: TNF reporter z-score, replicate mean -0.58. With knock-down of LY96 #5 the results were TNF reporter z-score, replicate mean 0.713. LY96 #6 gave TNF reporter z-score, replicate mean 0.507.

After knock-down of TIRAP #1, the screen gave TNF reporter z-score, replicate mean -1.69 (active). Silencing of TIRAP #2 came out at: TNF reporter z-score, replicate mean -0.685. Knock-down of TIRAP #3 came out at: TNF reporter z-score, replicate mean -3.3 (active). Silencing of TIRAP #4 resulted in: TNF reporter z-score, replicate mean 0.551. Knock-down of TIRAP #5 resulted in: TNF reporter z-score, replicate mean 1.22. For TIRAP #6 the deposit lists TNF reporter z-score, replicate mean -3.55 (active).

After knock-down of OTUD5 #1 the results were TNF reporter z-score, replicate mean 1.22. After knock-down of OTUD5 #2, the record shows TNF reporter z-score, replicate mean -2.6 (active). For OTUD5 #3, the values are TNF reporter z-score, replicate mean -0.682. With knock-down of OTUD5 #4, the record shows TNF reporter z-score, replicate mean 1.41. Silencing of OTUD5 #5 gave: TNF reporter z-score, replicate mean -1.65 (active). Against OTUD5 #6, the entry reads TNF reporter z-score, replicate mean -1.05.

With knock-down of PELI1 #1 the results were TNF reporter z-score, replicate mean -0.536. Knock-down of PELI1 #2 gave: TNF reporter z-score, replicate mean -0.0702. PELI1 #3 gave TNF reporter z-score, replicate mean 0.704. Depletion of PELI1 #4 resulted in: TNF reporter z-score, replicate mean -1.86 (active). PELI1 #5 scored TNF reporter z-score, replicate mean 0.0905. After knock-down of PELI1 #6, the record shows TNF reporter z-score, replicate mean 0.547.
